This note sets out measurements from patent US11382929B2, “Compositions and methods to treat disease” (REGENTS OF THE UNIVERSITY OF MINNESOTA, priority 2019, dated 2022).

For one test, the system named is MCF-7. Nature of the test: MTT cytotoxicity in 2D monolayer cell culture. The format is cell-based. The settings on record: Homo sapiens, MCF7; MCF-7, 24 h treatment. Here is the method: (§1) Cytotoxicity in 2D Monolayer Cell Culture A mouse breast cancer cell line EMT-6 (ATCC, Manassas, Va.), two human breast cancer cell lines MDA-MB-231(ATCC) and MCF-7(ATCC), and one human glioma cancer cell line T98G(ATCC) were used in standard MTT assays (T. Mosmann, J Immunol Methods 65(1-2) (1983) 55-63) to test the cytotoxicity of PAHM polymers with different molecular weight and concentration after 24 and 48 h of treatment. D ox-HCl was also tested for comparison. All of the four cancer cell lines were incubated in corresponding cell culture media, EMT-6 media (DMEM high glucose, 10% FBS, 100 U/mL penicillin/streptomycin), T98G and MDA-MB-231 media (DMEM low glucose, 10% FBS, 100 U/mL penicillin/streptomycin), MCF-7 media (DMEM low glucose, 10% FBS, insulin, 100 U/mL penicillin/streptomycin), at 37° C., and a humidified atmosphere containing 5% CO2.
(§2) The MTT assay of PAHM polymers and Dox-HCl on EMT-6 cells exemplified the general experimental procedures. EMT-6 cells were seeded into 96-well plates at 5000 cells/well and cultured for 20 h in EMT-6 media at 5% CO2 and 37° C. Afterwards polymers of various molecular weight and concentrations were added to the cells and cultured for 24 h or 48 h. MTT in PBS (5 mg/mL, 20 μL) was then added to each well, reaching a final concentration of 0.5 mg/mL. After 4 h, unreacted MTT was removed by aspiration. The formazan crystals were dissolved in 150 μL of DMSO, and the absorbance was measured at 570 nm using a Bio-Tek Synergy HT plate reader. Cell viability was calculated by [absorbance of cells exposed to polymers]/[absorbance of cells cultured without polymers] in percentage. Cell images were captured before MTT was added using an Olympus IX70 […] microscope under polarized light.

A further test has as its system MDA-MB-231. Nature of the test: MTT cytotoxicity in 2D monolayer cell culture. The format is cell-based. The settings on record: Homo sapiens. Here is the method:
as §1, §2

SMILES strings stand for the structures.

As a reminder, the IC50 is the point on the concentration scale where inhibition reaches its midpoint. In the case of `COc1cccc2c1C(=O)c1c(O)c3c(c(O)c1C2=O)C[C@@](O)(C(=O)CO)C[C@@H]3O[C@H]1C[C@H](N)[C@H](O)[C@H](C)O1` [Dox, doxorubicin], the IC50 with MCF-7 is 30 µg/mL; in the test with MDA-MB-231 (MDA-MB-231, 48 h) it was 5 µg/mL; in the test with MDA-MB-231 (MDA-MB-231, 24 h treatment), 10 to 15 µg/mL.
